# Measurements published in the supplement of paper PMC8728848.
# This is one part of the list.
# B1: R2-fiber (Pseudomonas aeruginosa), Q9S576 (protein)
# chain: HHHHHHKVAKDLVVSLAYQVRTEDGVLVDESPVSAPLDYLHGHGSLISGLETALEGHEVGDKFDVAVGANDAYGQYDENLVQRVPKDVFMGVDELQVGMRFLAETDQGPVPVEITAVEDDHVVVDGNHMLAGQNLKFNVEVVAIREATEEELAHGHVHGAHDHHHDHDHDGCCGGHGHDHGHEHGGEGCCGGKGNGGCGCHENLYFQGVTAGMALAATDIPGLDASKLVSGVLAEQRLPVFARGLATAVSNSSDPNTATVPLMLTNHANGPVAGRYFYIQSMFYPDQNGNASQIATSYNATSEMYVRVSYAANPSIREWLPWQRCDIGGSFTKEADGELPGGVNLDSMVTSGWWSQSFTAQAASGANYPIVRAGLLHVYAASSNFIYQTYQAYDGESFYFRCRHSNTWFPWRRMWHGGDFNPSDYLLKSGFYWNALPGKPATFPPSAHNHDVGQLTSGILPLARGGVGSNTAAGARSTIGAGVPATASLGASGWWRDNDTGLIRQWGQVTCPADADASITFPIPFPTLCLGGYANQTSAFHPGTDASTGFRGATTTTAVIRNGYFAQAVLSWEAFGR
# Key:
# Experiment in all cases: glycan array binding signal (z-score within array); higher = stronger binding
# Settings in all cases: glycan notation: IUPAC condensed, linker removed
# [1] = biological target: GlcNAc(a1-6)Gal(b1-4)GlcNAc
# Summary of the method: (§1)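 The binding signal is a Z-score computed within each array. Data were drawn from 3228 arrays in the Consortium for Functional Glycomics database, restricted to those with a known protein sequence. Scores were averaged over arrays of the same protein sequence at different concentrations or buffers, and over linkers, and negative values can be taken as non-binding.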
# [2] = biological target: GlcNAc(b1-2)Gal(b1-3)GalNAc
# Summary of the method: as §1
# [3] = biological target: GlcNAc(b1-2)Man(a1-3)[GlcNAc(b1-2)Man(a1-6)]Man(b1-4)GlcNAc(b1-4)GlcNAc
# Summary of the method: as §1
# [4] = biological target: GlcNAc(b1-2)Man(a1-3)[GlcNAc(b1-2)Man(a1-6)]Man(b1-4)GlcNAc(b1-4)[Fuc(a1-6)]GlcNAc
# Summary of the method: as §1
# [5] = biological target: GlcNAc(b1-2)Man(a1-3)[GlcNAc(b1-4)][GlcNAc(b1-2)Man(a1-6)]Man(b1-4)GlcNAc(b1-4)GlcNAc
# Summary of the method: as §1
# [6] = biological target: GlcNAc(b1-2)Man(a1-3)[GlcNAc(b1-4)][GlcNAc(b1-2)Man(a1-6)]Man(b1-4)GlcNAc(b1-4)[Fuc(a1-6)]GlcNAc
# Summary of the method: as §1
# [7] = biological target: GlcNAc(b1-2)[GlcNAc(b1-4)]Man(a1-3)[GlcNAc(b1-2)Man(a1-6)]Man(b1-4)GlcNAc(b1-4)GlcNAc
# Summary of the method: as §1
# [8] = biological target: GlcNAc(b1-2)[GlcNAc(b1-4)]Man(a1-3)[GlcNAc(b1-4)][GlcNAc(b1-2)Man(a1-6)]Man(b1-4)GlcNAc(b1-4)GlcNAc
# Summary of the method: as §1
# [9] = biological target: GlcNAc(b1-2)[GlcNAc(b1-4)]Man(a1-3)[GlcNAc(b1-4)][GlcNAc(b1-2)[GlcNAc(b1-6)]Man(a1-6)]Man(b1-4)GlcNAc(b1-4)GlcNAc
# Summary of the method: as §1
# [10] = biological target: GlcNAc(b1-2)[GlcNAc(b1-4)]Man(a1-3)[GlcNAc(b1-4)][GlcNAc(b1-2)[GlcNAc(b1-6)]Man(a1-6)]Man(b1-4)GlcNAc(b1-4)[Fuc(a1-6)]GlcNAc
# Summary of the method: as §1
# [11] = biological target: GlcNAc(b1-2)[GlcNAc(b1-6)]Man(a1-6)[GlcNAc(b1-2)Man(a1-3)]Man(b1-4)GlcNAc(b1-4)GlcNAc
# Summary of the method: as §1
# [12] = biological target: GlcNAc(b1-2)[GlcNAc(b1-6)]Man(a1-6)[GlcNAc(b1-2)Man(a1-3)]Man(b1-4)GlcNAc(b1-4)[Fuc(a1-6)]GlcNAc
# Summary of the method: as §1
# [13] = biological target: GlcNAc(b1-2)[GlcNAc(b1-6)]Man(a1-6)[GlcNAc(b1-4)][GlcNAc(b1-2)Man(a1-3)]Man(b1-4)GlcNAc(b1-4)GlcNAc
# Summary of the method: as §1
# GlcNAc(b1-3)Fuc = biological target: GlcNAc(b1-3)Fuc
# Summary of the method: as §1
# GlcNAc(b1-3)Gal = biological target: GlcNAc(b1-3)Gal
# Summary of the method: as §1
# [14] = biological target: GlcNAc(b1-3)Gal(b1-3)GalNAc
# Summary of the method: as §1
# GlcNAc(b1-3)Gal(b1-4)Glc = biological target: GlcNAc(b1-3)Gal(b1-4)Glc
# Summary of the method: as §1
# [15] = biological target: GlcNAc(b1-3)Gal(b1-4)GlcNAc
# Summary of the method: as §1
# [16] = biological target: GlcNAc(b1-3)Gal(b1-4)GlcNAc(b1-2)Man(a1-3)[GlcNAc(b1-3)Gal(b1-4)GlcNAc(b1-2)Man(a1-6)]Man(b1-4)GlcNAc(b1-4)GlcNAc
# Summary of the method: as §1
# [17] = biological target: GlcNAc(b1-3)Gal(b1-4)GlcNAc(b1-2)Man(a1-3)[GlcNAc(b1-3)Gal(b1-4)GlcNAc(b1-2)Man(a1-6)]Man(b1-4)GlcNAc(b1-4)[Fuc(a1-6)]GlcNAc
# Summary of the method: as §1
# [18] = biological target: GlcNAc(b1-3)Gal(b1-4)GlcNAc(b1-2)[GlcNAc(b1-3)Gal(b1-4)GlcNAc(b1-6)]Man(a1-6)[GlcNAc(b1-3)Gal(b1-4)GlcNAc(b1-2)Man(a1-3)]Man(b1-4)GlcNAc(b1-4)GlcNAc
# Summary of the method: as §1
# [19] = biological target: GlcNAc(b1-3)Gal(b1-4)GlcNAc(b1-3)Gal(b1-4)GlcNAc
# Summary of the method: as §1
# [20] = biological target: GlcNAc(b1-3)Gal(b1-4)GlcNAc(b1-3)Gal(b1-4)GlcNAc(b1-2)Man(a1-3)[GlcNAc(b1-3)Gal(b1-4)GlcNAc(b1-3)Gal(b1-4)GlcNAc(b1-2)Man(a1-6)]Man(b1-4)GlcNAc(b1-4)GlcNAc
# Summary of the method: as §1
# [21] = biological target: GlcNAc(b1-3)Gal(b1-4)GlcNAc(b1-3)Gal(b1-4)GlcNAc(b1-2)Man(a1-3)[GlcNAc(b1-3)Gal(b1-4)GlcNAc(b1-3)Gal(b1-4)GlcNAc(b1-2)Man(a1-6)]Man(b1-4)GlcNAc(b1-4)[Fuc(a1-6)]GlcNAc
# Summary of the method: as §1
# [22] = biological target: GlcNAc(b1-3)Gal(b1-4)GlcNAc(b1-3)Gal(b1-4)GlcNAc(b1-2)[GlcNAc(b1-3)Gal(b1-4)GlcNAc(b1-3)Gal(b1-4)GlcNAc(b1-6)]Man(a1-6)[GlcNAc(b1-3)Gal(b1-4)GlcNAc(b1-3)Gal(b1-4)GlcNAc(b1-2)Man(a1-3)]Man(b1-4)GlcNAc(b1-4)[Fuc(a1-6)]GlcNAc
# Summary of the method: as §1
# [23] = biological target: GlcNAc(b1-3)Gal(b1-4)GlcNAc(b1-3)Gal(b1-4)GlcNAc(b1-3)Gal(b1-4)GlcNAc(b1-2)Man(a1-3)[GlcNAc(b1-3)Gal(b1-4)GlcNAc(b1-3)Gal(b1-4)GlcNAc(b1-3)Gal(b1-4)GlcNAc(b1-2)Man(a1-6)]Man(b1-4)GlcNAc(b1-4)GlcNAc
# Summary of the method: as §1
# [24] = biological target: GlcNAc(b1-3)Gal(b1-4)GlcNAc(b1-3)Gal(b1-4)GlcNAc(b1-3)Gal(b1-4)GlcNAc(b1-2)Man(a1-3)[GlcNAc(b1-3)Gal(b1-4)GlcNAc(b1-3)Gal(b1-4)GlcNAc(b1-3)Gal(b1-4)GlcNAc(b1-2)Man(a1-6)]Man(b1-4)GlcNAc(b1-4)[Fuc(a1-6)]GlcNAc
# Summary of the method: as §1
# [25] = biological target: GlcNAc(b1-3)Gal(b1-4)GlcNAc(b1-3)Gal(b1-4)GlcNAc(b1-3)Gal(b1-4)GlcNAc(b1-2)[GlcNAc(b1-3)Gal(b1-4)GlcNAc(b1-3)Gal(b1-4)GlcNAc(b1-3)Gal(b1-4)GlcNAc(b1-6)]Man(a1-6)[GlcNAc(b1-3)Gal(b1-4)GlcNAc(b1-3)Gal(b1-4)GlcNAc(b1-3)Gal(b1-4)GlcNAc(b1-2)Man(a1-3)]Man(b1-4)GlcNAc(b1-4)[Fuc(a1-6)]GlcNAc
# Summary of the method: as §1
# [26] = biological target: GlcNAc(b1-3)Gal(b1-4)GlcNAc(b1-3)Gal(b1-4)GlcNAc(b1-3)Gal(b1-4)GlcNAc(b1-3)Gal(b1-4)GlcNAc(b1-2)Man(a1-3)[GlcNAc(b1-3)Gal(b1-4)GlcNAc(b1-3)Gal(b1-4)GlcNAc(b1-3)Gal(b1-4)GlcNAc(b1-3)Gal(b1-4)GlcNAc(b1-2)Man(a1-6)]Man(b1-4)GlcNAc(b1-4)GlcNAc
# Summary of the method: as §1
# [27] = biological target: GlcNAc(b1-3)Gal(b1-4)GlcNAc(b1-3)Gal(b1-4)GlcNAc(b1-3)Gal(b1-4)GlcNAc(b1-3)Gal(b1-4)GlcNAc(b1-2)Man(a1-3)[GlcNAc(b1-3)Gal(b1-4)GlcNAc(b1-3)Gal(b1-4)GlcNAc(b1-3)Gal(b1-4)GlcNAc(b1-3)Gal(b1-4)GlcNAc(b1-2)Man(a1-6)]Man(b1-4)GlcNAc(b1-4)[Fuc(a1-6)]GlcNAc
# Summary of the method: as §1
binder,measurement,setting,value
B1,glycan array binding signal (z-score),[1],-0.052
same,glycan array binding signal (z-score),[2],-0.689
same,glycan array binding signal (z-score),[3],-0.255
same,glycan array binding signal (z-score),[4],-0.142
same,glycan array binding signal (z-score),[5],-0.205
same,glycan array binding signal (z-score),[6],-0.091
same,glycan array binding signal (z-score),[7],-0.215
same,glycan array binding signal (z-score),[8],0.423
same,glycan array binding signal (z-score),[9],-0.181
same,glycan array binding signal (z-score),[10],-0.347
same,glycan array binding signal (z-score),[11],-0.621
same,glycan array binding signal (z-score),[12],14.6
same,glycan array binding signal (z-score),[13],-0.423
same,glycan array binding signal (z-score),GlcNAc(b1-3)Fuc,-0.211
same,glycan array binding signal (z-score),GlcNAc(b1-3)Gal,-0.736
same,glycan array binding signal (z-score),[14],0.38
same,glycan array binding signal (z-score),GlcNAc(b1-3)Gal(b1-4)Glc,-1.75
same,glycan array binding signal (z-score),[15],-0.499
same,glycan array binding signal (z-score),[16],0.012
same,glycan array binding signal (z-score),[17],-0.218
same,glycan array binding signal (z-score),[18],0.612
same,glycan array binding signal (z-score),[19],0.586
same,glycan array binding signal (z-score),[20],-0.458
same,glycan array binding signal (z-score),[21],1.45
same,glycan array binding signal (z-score),[22],0.519
same,glycan array binding signal (z-score),[23],-0.599
same,glycan array binding signal (z-score),[24],0.444
same,glycan array binding signal (z-score),[25],0.406
same,glycan array binding signal (z-score),[26],-0.528
same,glycan array binding signal (z-score),[27],0.092

# Reprinted at random: two entries already listed, in no set order.
binder,measurement,setting,value
B1,glycan array binding signal (z-score),[13],-0.423
same,glycan array binding signal (z-score),[15],-0.499
